SMILES strings stand for the structures. Values joined by “and” are separate entries in the source; they are usually repeats but may differ in a detail not shown here. Equal entries are not always repeated.

Results on 33 molecules are retold here after patent publication US20170046476A1, “SYSTEMS, APPARATUS, AND METHODS FOR ANALYZING AND PREDICTING CELLULAR PATHWAYS” (priority 2015, published 2017).

This data set has as its system STHdh cell line model of Huntington's disease. As to the kind of experiment: Global (untargeted) lipid profiling by LC-MS, STHdh Q111 vs STHdh Q7 cells. Type of data set: cell-based, mouse.
[1] abbreviates: ratio of LC-MS metabolite feature level, STHdh Q7 vs STHdh Q111 cells, feature (mode_m/z_RT) matched by mass to potential metabolites, P-value ≦0.01.
Setting [2] is: ratio of LC-MS feature level in STHdh Q7 vs STHdh Q111 cells, positive mode feature (mode_m/z_RT), mass matched to potential metabolites in the PPMI network.

Regarding `CC(C)=CCCC(C)C1OCC(C)O1` (stereo not drawn), the Q7/Q111 under setting [1] came to 0.2707. On the same count and under the same terms, the value for `CCCCCc1oc(CCCCCCC(=O)O)c(C)c1C` was 0.1468; that for `O=C1c2c(cc3c(c2O)OCO3)OC(c2ccccc2)C1O` (stereo not drawn) was 6.631. For `CCCCCCCC/C=C\CCCCCCCC(=O)OCC(COC(=O)CCCCCCCCCCCCCCCCC)OC(=O)CCCCCCCCCCCCCCCCC` (stereo not drawn), the Q7/Q111 under setting [2] was determined as 6.574. With `CCCCCCCC/C=C\CCCCCCCC(=O)OC(COC(=O)CCCCCCCCCCCCCCCCC)COC(=O)CCCCCCCCCCCCCCCCC`, under setting [2], the Q7/Q111 amounted to 6.574. With `CC/C=C\C/C=C\C=C\[C@@H](O)CCCCCCCC(=O)O`, the Q7/Q111 under setting [1] amounted to 0.1468. On the same count and under the same terms, the value for `CCC(O)/C=C/C=C\C/C=C\CCCCCCCC(=O)O` (stereo not drawn) was 0.1468. On to `CC(C)=CCCC(C)CCOCC=O` (stereo not drawn), for which the Q7/Q111 under setting [1] was 0.2707. On to `CCOC(=O)C(O)C(C)CC` (racemic) [(+/−)-Ethyl 2-hydroxy-3-methylvalerate], for which, under setting [1], the Q7/Q111 is 0.2033. Still for that read-out and setting: the value for `CC(=O)OCCC(C)CCC=C(C)C` (racemic) [(±)-Citronellyl acetate] was 0.2707; that for `CC(=O)OC1CC(C)CCC1C(C)C` (racemic) [(±)-Menthyl acetate] was 0.2707; that for `CCCC(O)CC(=O)OCC` (racemic) [Ethyl (±)-3-hydroxyhexanoate] was 0.2033. The same measure, in the same setting: the value for `COC(C=C(C)CCC=C(C)C)OC` [1,1-Dimethoxy-3,7-dimethyl-2,6-octadiene] was 0.2707; that for `CCCCCCCCCCCCCCCC(O)CC(O)CO` (stereo not drawn) [1,2,4-Nonadecanetriol] was 0.2648 and 0.2181; that for `C=CC(CCCCC)OC(=O)CCC` (stereo not drawn) [1-Ethenylhexyl butanoate] was 0.2707. For `CCCCCCCCCC=CC=O` [2-Dodecenal], the Q7/Q111 under setting [2] was 7.424. In the case of `CCC1(O)C2(C)CCC(C2)C1(C)C` (stereo not drawn) [2-Ethyl-1,3,3-trimethyl-2-norbornanol], under setting [1], the Q7/Q111 was determined as 7.424. `CCCC=CCOC(=O)CCCCC` [2-Hexenyl hexanoate]: under setting [1], the Q7/Q111 is on record as 0.2707. Regarding `CC/C=C\C/C=C\C/C=C\CCCCCCC(O)C(=O)O` (stereo not drawn) [2-Hydroxylinolenic acid], the Q7/Q111 under setting [1] is recorded as 0.1468. Still for that read-out and setting: in the case of `CCCCCC=CCOC(=O)CCC` [2-Octenyl butyrate] it was 0.2707; in that of `C=CCOC(=O)CCCCC1CCCCC1` [2-Propenyl cyclohexanepentanoate], 0.1814; in that of `COc1ccc(-c2oc3cc(O)ccc3c(=O)c2O)cc1O` [3,3′,7-Trihydroxy-4′-methoxyflavone], 6.631. As to `CCCCCCCC1CC(C)OC1=O` (stereo not drawn) [3-Heptyldihydro-5-methyl-2(3H)-furanone], the Q7/Q111 under setting [1] came out at 0.2707. Still for that read-out and setting: in the case of `CCCCCC(O)CC(=O)O` (stereo not drawn) [3-Hydroxyoctanoic acid] it was 0.2033. Same read-out and setting: in the case of `CCCC(C(=O)O)C(O)CC` (stereo not drawn) [3-Hydroxyvalproic acid] it was 0.2033; in that of `CC(=O)OC(C)C(C)=CC1C(C)=CCCC1(C)C` (stereo not drawn) [3-Methyl-alpha-ionyl acetate], 0.2629; in that of `CCCC(CC(C)O)C(=O)O` (stereo not drawn) [4-Hydroxyvalproic acid], 0.2033. For `CC1=C(/C=C/C(C)=C/C=C/C(C)=C/CO)C(C)(C)CCC1O` (stereo not drawn) [4-hydroxyvitamin A1], the Q7/Q111 under setting [1] turned out to be 2.729. As to `CCCCC1(CCCC)CCC(=O)O1` [5,5-Dibutyl-4,5-dihydro-2(3H)furanone], under setting [1], the Q7/Q111 is recorded as 0.2707. The same measure, in the same setting: the value for `CCCCCC=CCC=CCCCC(=O)O` [5,8-Tetradecadienoic acid] was 0.1814.

Consider `CCCCCCC=CCCCC(=O)O` [5-Dodecenoic acid], for which the Q7/Q111 under setting [1] is recorded as 0.2707. Regarding `CCCC(CCCO)C(=O)O` (stereo not drawn) [5-Hydroxyvalproic acid], the Q7/Q111 under setting [1] is on record as 0.2033. As to `C[C@]12CC[C@@H](O)C[C@@H]1CC[C@@H]1[C@@H]2CC[C@]2(C)[C@@H](O)CC[C@@H]12` [5alpha-androstane-3alpha,17beta-diol], under setting [1], the Q7/Q111 was 8.118.
